Results on one substance are retold here after article PMC3865254.

Amino acid sequences for entries named in this document (tags omitted). A change or cut given only in a name is not applied to a line headed by its entry. Chains listed by the source or under a name are the forms on record and can include a tag or linker.
Sarco(endo)plasmic reticulum Ca2+-ATPase 1a (human (endogenous in vastus lateralis)) (O14983, form named): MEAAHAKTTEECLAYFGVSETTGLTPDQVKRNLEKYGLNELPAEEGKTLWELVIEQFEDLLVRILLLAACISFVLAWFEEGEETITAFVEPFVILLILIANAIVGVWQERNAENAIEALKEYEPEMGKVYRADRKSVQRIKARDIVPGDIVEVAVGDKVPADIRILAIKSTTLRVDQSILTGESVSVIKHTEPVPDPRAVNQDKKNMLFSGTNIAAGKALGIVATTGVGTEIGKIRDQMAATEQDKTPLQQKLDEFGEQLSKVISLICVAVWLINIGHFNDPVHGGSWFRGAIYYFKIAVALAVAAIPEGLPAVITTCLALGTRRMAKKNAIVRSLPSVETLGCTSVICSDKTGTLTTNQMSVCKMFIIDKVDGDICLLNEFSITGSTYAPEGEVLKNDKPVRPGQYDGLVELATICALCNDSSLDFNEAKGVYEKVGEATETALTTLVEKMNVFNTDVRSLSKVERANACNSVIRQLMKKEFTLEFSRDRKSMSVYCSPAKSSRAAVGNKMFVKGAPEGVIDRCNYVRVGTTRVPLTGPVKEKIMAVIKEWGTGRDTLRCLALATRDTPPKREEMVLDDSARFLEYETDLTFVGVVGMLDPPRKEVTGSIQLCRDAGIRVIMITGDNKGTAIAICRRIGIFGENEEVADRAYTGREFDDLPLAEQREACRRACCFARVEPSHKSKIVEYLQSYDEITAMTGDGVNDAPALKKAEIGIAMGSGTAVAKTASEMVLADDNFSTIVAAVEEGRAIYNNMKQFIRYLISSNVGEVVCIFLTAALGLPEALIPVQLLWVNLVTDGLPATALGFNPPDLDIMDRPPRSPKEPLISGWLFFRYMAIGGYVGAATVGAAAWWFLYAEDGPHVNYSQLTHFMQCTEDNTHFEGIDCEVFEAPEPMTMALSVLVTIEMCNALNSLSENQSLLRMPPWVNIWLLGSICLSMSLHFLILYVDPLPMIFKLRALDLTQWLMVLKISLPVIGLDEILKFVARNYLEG
Sarco(endo)plasmic reticulum Ca2+-ATPase 2a (human (endogenous in vastus lateralis)) (P16615, form named): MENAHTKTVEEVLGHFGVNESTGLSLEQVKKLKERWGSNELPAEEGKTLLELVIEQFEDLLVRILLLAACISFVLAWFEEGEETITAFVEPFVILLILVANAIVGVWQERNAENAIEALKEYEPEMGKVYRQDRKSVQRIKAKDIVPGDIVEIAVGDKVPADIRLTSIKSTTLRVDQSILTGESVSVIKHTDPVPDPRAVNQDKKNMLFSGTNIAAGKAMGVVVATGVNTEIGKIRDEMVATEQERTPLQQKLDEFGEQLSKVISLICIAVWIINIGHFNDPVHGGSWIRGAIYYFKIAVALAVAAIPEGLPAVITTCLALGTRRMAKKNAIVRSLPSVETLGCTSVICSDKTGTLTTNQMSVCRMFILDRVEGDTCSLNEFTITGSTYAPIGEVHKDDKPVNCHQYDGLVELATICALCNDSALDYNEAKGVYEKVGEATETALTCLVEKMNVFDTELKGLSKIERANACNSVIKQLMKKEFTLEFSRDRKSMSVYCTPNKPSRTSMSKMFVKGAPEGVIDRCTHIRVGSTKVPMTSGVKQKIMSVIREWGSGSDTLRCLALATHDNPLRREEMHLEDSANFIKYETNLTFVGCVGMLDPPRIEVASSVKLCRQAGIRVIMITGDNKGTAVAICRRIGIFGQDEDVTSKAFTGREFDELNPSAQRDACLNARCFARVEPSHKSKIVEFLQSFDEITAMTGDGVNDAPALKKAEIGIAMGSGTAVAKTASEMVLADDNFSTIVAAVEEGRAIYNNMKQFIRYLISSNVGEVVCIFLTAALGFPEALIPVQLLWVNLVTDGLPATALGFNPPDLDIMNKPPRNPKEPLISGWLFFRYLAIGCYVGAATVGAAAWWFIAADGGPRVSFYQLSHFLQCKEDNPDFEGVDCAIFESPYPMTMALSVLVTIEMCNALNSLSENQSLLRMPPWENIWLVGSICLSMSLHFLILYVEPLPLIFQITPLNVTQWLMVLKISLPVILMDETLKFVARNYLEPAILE
UniProt P26678: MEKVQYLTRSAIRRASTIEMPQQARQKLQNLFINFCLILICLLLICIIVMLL

Test [1] addresses Sarco(endo)plasmic reticulum Ca2+-ATPase 1a (human (endogenous in vastus lateralis)) (UniProt O14983). In words: co-IP; Protein G agarose beads coupled with 5 μg of antibody against SERCA1a, SERCA2a, PLN or SLN; incubated overnight at 4°C with 400 μg of protein from human vastus lateralis homogenate; low-pH elution; Western blot for SLN, PLN, SERCA1a or SERCA2a; homogenates from 3 individuals.

The target in test [2] is Sarco(endo)plasmic reticulum Ca2+-ATPase 2a (human (endogenous in vastus lateralis)) (UniProt P16615). The description is as above.

These are yes or no findings as the source states them, for the method shown. Binding seen in cells or lysates may run through a third protein. Some entries that bind do so weakly or less than the wild type.

For “Phospholamban (from UniProt P26678 1-52)”, the binding result in test [1] and in test [2] was “binds” each time.
